Assay results: PubChem BioAssay (NCATS)
The inconclusive results got no clear call from the source; some entries with a clear call stand among them for comparison. For some of these results: A potency beside an inconclusive call is a rough fit, not a confirmed value. Active and inactive are the calls of the source. Calls follow the shape of the dose curve; as a rule, active = well fitted curve in the direction sought with a large enough effect; inconclusive = small, poorly fitted or top-dose-only effect, or another doubt; inactive = no such curve, though single readings can be large; an effect the other way counts as inactive or inconclusive.

Columns and labels:
[1] = Quantitative High-Throughput drug screen in 47 multiple myeloma cell lines against the NCATS MIPE library collection: JIM3_ECACC cell viability assay (AID 1918963; also: nearly all actives have a fitted effect of over 35% in size; also: potency is read from the fitted curve at half-maximal effect); settings: JIM3 myeloma viability, CellTiter-Glo ATP, 48 h; series mostly up to 45.8 µM
Method in brief: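 Inhibition of cell viability is measured here. Each line was plated at 500 cells per well, treated with MIPE 4.0 drugs, kept 48 hours at 37C, then assayed for ATP content by CellTiter-Glo luminescence.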

[2] = Quantitative High-Throughput drug screen in 47 multiple myeloma cell lines against the NCATS MIPE library collection: JIM1_ECACC cell viability assay (AID 1918964; also: potency is read from the fitted curve at half-maximal effect); settings: JIM1 myeloma viability, CellTiter-Glo ATP luminescence, 48 h; viability (% of DMSO): at 45.8 µM (top of the series)
Method in brief: (§1)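 Primary qHTS used for cherry-picking: cells at 500/well, library compounds for 48 h (37C, 5% CO2), luminescent ATP assay.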

[3] = Quantitative High-Throughput drug screen in 47 multiple myeloma cell lines against the NCATS MIPE library collection: INA6_PLB cell viability assay (AID 1918965; also: nearly all actives have a fitted effect of over 55% in size; also: potency is read from the fitted curve at half-maximal effect); settings: INA6 myeloma viability, CellTiter-Glo ATP luminescence, 48 h; viability (% of control): at 45.8 µM (top of the series)
Method in brief: (§2)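 qHTS of the MIPE 4.0 collection: 500 myeloma cells/well, 48 h drug exposure at 37C in 5% CO2, then CellTiter-Glo for 5 min at room temperature before luminescence reading.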

[4] = Quantitative High-Throughput drug screen in 47 multiple myeloma cell lines against the NCATS MIPE library collection: JJN3_DSMZ cell viability assay (AID 1918966; also: nearly all actives have a fitted effect of over 50% in size; also: potency is read from the fitted curve at half-maximal effect); settings: JJN3 myeloma cells viability, CellTiter-Glo ATP, 48 h; series mostly up to 45.8 µM
Method in brief: as §1

[5] = Quantitative High-Throughput drug screen in 47 multiple myeloma cell lines against the NCATS MIPE library collection: Karpas25_ECACC cell viability assay (AID 1918968; also: nearly all actives have a fitted effect of over 35% in size); settings: Karpas25 myeloma viability, CellTiter-Glo ATP, 48 h; viability (% of control): at 45.8 µM (top of the series)
Method in brief: as §1

[6] = Quantitative High-Throughput drug screen in 47 multiple myeloma cell lines against the NCATS MIPE library collection: KMS27_JCRB cell viability assay (AID 1918970); settings: KMS27 myeloma cells, CellTiter-Glo ATP viability, 48 h; viability (% of DMSO): at 45.8 µM (top of the series); also: nearly all actives have a fitted effect of over 30% in size; also: potency is read from the fitted curve at half-maximal effect
Method in brief: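 Myeloma cells (500 per well) were exposed to MIPE 4.0 compounds for 48 h at 37 °C, 5% CO2; viability was read as ATP luminescence with CellTiter-Glo, normalized to DMSO-only (100%) and media-only (0%) wells.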

[7] = Quantitative High-Throughput drug screen in 47 multiple myeloma cell lines against the NCATS MIPE library collection: KMS12BM_JCRB cell viability assay (AID 1918971); also: nearly all actives have a fitted effect of over 35% in size; also: potency is read from the fitted curve at half-maximal effect
Method in brief: (§3)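 Viability readout: CellTiter-Glo luminescence following 5 min room-temperature incubation with reagent. Prior exposure: 48 h, 37C, humidified 5% CO2, 500 cells per well.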

[8] = Quantitative High-Throughput drug screen in 47 multiple myeloma cell lines against the NCATS MIPE library collection: KMS12PE_JCRB cell viability assay (AID 1918972); settings: KMS12PE myeloma viability, CellTiter-Glo ATP, 48 h; viability: at 45.8 µM (top of the series); also: nearly all actives have a fitted effect of over 30% in size; also: potency is read from the fitted curve at half-maximal effect
Method in brief: as §2

[9] = Quantitative High-Throughput drug screen in 47 multiple myeloma cell lines against the NCATS MIPE library collection: KMS20_JCRB cell viability assay (AID 1918973); settings: CellTiter-Glo ATP, 48 h; viability (% of DMSO): at 45.8 µM (top of the series); also: nearly all actives have a fitted effect of over 45% in size; also: potency is read from the fitted curve at half-maximal effect
Method in brief: as §1

[10] = Quantitative High-Throughput drug screen in 47 multiple myeloma cell lines against the NCATS MIPE library collection: KMS21BM_JCRB cell viability assay (AID 1918974); settings: ATP luminescence, 48 h; viability: at 45.8 µM (top of the series) unless noted; also: potency is read from the fitted curve at half-maximal effect
Method in brief: as §1

[11] = Quantitative High-Throughput drug screen in 47 multiple myeloma cell lines against the NCATS MIPE library collection: KMS26_JCRB cell viability assay (AID 1918975); settings: KMS26 myeloma cells viability, CellTiter-Glo ATP, 48 h; viability (% of DMSO): at 45.8 µM (top of the series); also: nearly all actives have a fitted effect of over 45% in size
Method in brief: as §3

[12] = Quantitative High-Throughput drug screen in 47 multiple myeloma cell lines against the NCATS MIPE library collection: MMM1_PLB cell viability assay (AID 1918976); also: potency is read from the fitted curve at half-maximal effect; nearly all actives have a fitted effect of over 35% in size
Method in brief: (§4)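 Viability after 48 h drug exposure was measured as ATP-dependent luminescence. Cells, 500 per well, sat at 37 °C under 5% CO2; DMSO wells set 100%, media-only wells 0%.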

[13] = Quantitative High-Throughput drug screen in 47 multiple myeloma cell lines against the NCATS MIPE library collection: MOLP8_DSMZ cell viability assay (AID 1918977); settings: MOLP8 myeloma viability, CellTiter-Glo ATP luminescence, 48 h; viability (% of control): at 45.8 µM (top of the series); also: potency is read from the fitted curve at half-maximal effect; nearly all actives have a fitted effect of over 45% in size
Method in brief: as §4

[14] = Quantitative High-Throughput drug screen in 47 multiple myeloma cell lines against the NCATS MIPE library collection: OCIMY1_PLB cell viability assay (AID 1918979); also: nearly all actives have a fitted effect of over 35% in size
Method in brief: as §4

[15] = Quantitative High-Throughput drug screen in 47 multiple myeloma cell lines against the NCATS MIPE library collection: MM1S_ATCC cell viability assay (AID 1918980); also: nearly all actives have a fitted effect of over 45% in size; also: potency is read from the fitted curve at half-maximal effect
Method in brief: as §4

[16] = Quantitative High-Throughput drug screen in 47 multiple myeloma cell lines against the NCATS MIPE library collection: MM1R_ATCC cell viability assay (AID 1918981); also: nearly all actives have a fitted effect of over 35% in size; also: potency is read from the fitted curve at half-maximal effect
Method in brief: as §4

[17] = Quantitative High-Throughput drug screen in 47 multiple myeloma cell lines against the NCATS MIPE library collection: KMS28PE_JCRB cell viability assay (AID 1918983); also: nearly all actives have a fitted effect of over 35% in size; also: potency is read from the fitted curve at half-maximal effect
Method in brief: as §4

[18] = Quantitative High-Throughput drug screen in 47 multiple myeloma cell lines against the NCATS MIPE library collection: H1112_PLB cell viability assay (AID 1918967; also: nearly all actives have a fitted effect of over 30% in size; also: potency is read from the fitted curve at half-maximal effect); settings: H1112 myeloma cells viability, ATP luminescence, 48 h; viability: at 45.8 µM (top of the series)
Method in brief: as §1

[19] = Quantitative High-Throughput drug screen in 47 multiple myeloma cell lines against the NCATS MIPE library collection: LP1_DSMZ cell viability assay (AID 1918982); also: nearly all actives have a fitted effect of over 35% in size; also: potency is read from the fitted curve at half-maximal effect
Method in brief: as §4

[20] = Quantitative High-Throughput drug screen in 47 multiple myeloma cell lines against the NCATS MIPE library collection: NCIH929_DSMZ cell viability assay (AID 1918978); also: nearly all actives have a fitted effect of over 35% in size; also: potency is read from the fitted curve at half-maximal effect
Method in brief: as §4

Measured: Potency

COc1cc(O)c2c(c1)C(=O)c1cc(C)cc(O)c1C2=O
inconclusive: [2] 204 nM [cytotoxic, partial curve, poor fit] | [3] 1.4 nM | [4] 18200 nM [cytotoxic, single point] | [10] 16200 nM [rising, partial curve] | [12] 1820 nM [cytotoxic, partial curve, poor fit] | [13] 0.6 nM | [15] 1820 nM [cytotoxic, full curve, poor fit] | [16] 724 nM [cytotoxic, full curve, poor fit] | [17] 11500 nM [cytotoxic, single point]
inactive: [1] | [5] | [6] | [7] | [8] | [9] | [11] | [14]

CCCC1OC2C[C@@H]3[C@H]4CCC5=CC(=O)C=C[C@]5(C)[C@H]4C(O)C[C@]3(C)[C@]2(C(=O)CO)O1 (stereo not given in full)
inconclusive: [1] 23500 nM [cytotoxic, partial curve, poor fit] | [2] 2.3 nM [rising, full curve, poor fit] | [4] 20900 nM [cytotoxic, partial curve, poor fit] | [9] 3.3 nM [cytotoxic, full curve, poor fit] | [10] 33200 nM [rising, partial curve] | [13] 41800 nM [cytotoxic, partial curve, poor fit] | [16] 26400 nM [cytotoxic, single point]
active: [19] 6.6 nM | [17] 20900 nM
inactive: [3] | [18] | [11]

Clc1ccc(-c2nc3sccn3c2C=NOCc2ccc(Cl)c(Cl)c2)cc1
inconclusive: [1] 2640 nM [cytotoxic, partial curve, poor fit] | [2] 1050 nM [cytotoxic, full curve, poor fit] | [6] 46.9 nM [cytotoxic, full curve, poor fit] | [7] 26400 nM [cytotoxic, single point] | [17] 6620 nM [cytotoxic, partial curve, poor fit]
inactive: [3] | [4] | [18] | [8] | [15] | [16]

Nc1nnc(-c2cccc(Cl)c2Cl)c(N)n1
inactive: [2] | [11] | [14]
active: [20] 23500 nM
inconclusive: [1] 37200 nM [cytotoxic, single point] | [3] 37200 nM [cytotoxic, single point] | [4] 23.5 nM [rising, full curve, poor fit] | [18] 33200 nM [cytotoxic, single point] | [7] 93.5 nM [rising, full curve] | [8] 1.3 nM [rising, full curve, poor fit] | [9] 29600 nM [cytotoxic, single point] | [12] 8.3 nM [rising, full curve] | [13] 935 nM [rising, full curve, poor fit] | [16] 2.1 nM [rising, full curve, poor fit] | [17] 1.3 nM [rising, full curve]

C[C@H](NC(=O)Cc1cc(F)cc(F)c1)C(=O)N[C@H](C(=O)OC(C)(C)C)c1ccccc1
active: [7] 4690 nM
inconclusive: [1] 2350 nM [cytotoxic, partial curve, poor fit] | [2] 7.4 nM [cytotoxic, full curve, poor fit] | [3] 4.2 nM [rising, full curve, poor fit] | [4] 37200 nM [cytotoxic, single point] | [9] 1660 nM [cytotoxic, full curve, poor fit] | [13] 16.6 nM [cytotoxic, single point]
not listed: [5] | [6] | [10] | [12] | [14]
inactive: all other assays above
